Results reported in the supplement of paper PMC6289059.
The list shows a part of the results. Many values rest on one well or one pass, so single values are uncertain.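 Hepatocyte-like cells derived from human stem cells with CRISPR-disrupted DGUOK model liver mtDNA depletion syndrome. Each well's ATP signal was scored against other wells on the same plate, and drugs scoring 3 or above were primary hits.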

The molecules below were run on DGUOK Δ14/Δ5 iPSC-derived hepatocyte-like cells (SV20) (assay: ATP level (CellTiter-Glo luminescence) Z score relative to plate distribution, under 2-DG glycolysis block; higher = more cellular ATP (rescue of mitochondrial ATP production)). Settings: 5 µM; treatment time: day 15 to day 20 of differentiation (5 days); 2-deoxy-D-glucose: 20 mM for 24 h before assay.

| Compound | ATP level |
| --- | --- |
| COc1c(Cl)c(C)c(C(=O)Oc2cc(C)c(C(=O)O)c(O)c2)c(O)c1Cl | inactive: -0.184 |
| CC(C(=O)O)[C@H]1CCC2C3CC=C4C[C@@H](O)CC[C@]4(C)C3CC[C@@]21C (stereo partly drawn) [3beta-HYDROXY-23,24-BISNORCHOL-5-ENIC ACID] | inactive: -2.11 |
| CN1C(=O)CC(C)(c2ccccc2)C1=O (configuration not stated) | inactive: 0.883 |
| CCN(CC)CCNC(=O)c1ccc(NC(C)=O)cc1 | inactive: 2.67 |
| CNC[C@H](O)c1cccc(O)c1 | inactive: 0.984 |
| OC[C@H]1O[C@@H](OCCc2ccc(O)cc2)[C@H](O)[C@@H](O)[C@@H]1O | inactive: -0.157 |
| CNCCC=C1c2ccccc2CCc2ccccc21 | inactive: -14.2 |
| C[C@H]1[C@H](NC(=O)/C(=N\OC(C)(C)C(=O)O)c2csc(N)n2)C(=O)N1S(=O)(=O)O | inactive: -0.251 |
| CCc1c2c(nc3ccc(OC(=O)N4CCC(N5CCCCC5)CC4)cc13)-c1cc3c(c(=O)n1C2)COC(=O)[C@]3(O)CC | inactive: -2.78 |
| Cc1ccc2c(c1)CC[C@H]1CC(=O)CC[C@]21C | inactive: 0.709 |
| C[C@@H](O)[C@H](N)C(=O)O | inactive: -1.23 |
| CC(C)(O/N=C(\C(=O)N[C@@H]1C(=O)N2C(C(=O)[O-])=C(C[n+]3ccccc3)CS[C@H]12)c1csc(N)n1)C(=O)O | inactive: 2.83 |
| CN1CCN(C(c2ccccc2)c2ccc(Cl)cc2)CC1 (configuration not stated) | inactive: -2.68 |
| Cc1ccc(C(C)C)cc2c(C)ccc1-2 | inactive: -1.05 |
| O=C(N/N=C/c1ccc([N+](=O)[O-])o1)c1ccc(O)cc1 | inactive: 0.395 |
| NC(=O)c1ncn([C@@H]2O[C@H](CO)[C@@H](O)[C@H]2O)c1O | inactive: 0.609 |
| CC(=O)Nc1ccc(S(=O)(=O)Nc2ccc([N+](=O)[O-])cc2)cc1 | inactive: 0.98 |
| Cc1ccc(C(=O)Nc2ccc(S(=O)(=O)O)c3cc(S(=O)(=O)O)cc(S(=O)(=O)O)c23)cc1NC(=O)c1cccc(NC(=O)Nc2cccc(C(=O)Nc3cc(C(=O)Nc4ccc(S(=O)(=O)O)c5cc(S(=O)(=O)O)cc(S(=O)(=O)O)c45)ccc3C)c2)c1 | inactive: 2.63 |
| CCc1cc(C(N)=S)ccn1 | inactive: -1.32 |
| CC(=O)Nc1c(I)c(NC(C)=O)c(I)c(C(=O)O)c1I | inactive: 0.977 |
| CCn1cc(C(=O)O)c(=O)c2cc(F)c(N3CCN(C)CC3)cc21 | inactive: -1.43 |
| Cc1ccc(S(=O)(=O)NCl)cc1 | inactive: 2.3 |
| C[C@@H]1CN(c2c(F)c(N)c3c(=O)c(C(=O)O)cn(C4CC4)c3c2F)C[C@H](C)N1 | inactive: -2.32 |
| C[C@@H]1O[C@@H]1P(=O)(O)O | inactive: 2.09 |

Of the compounds above, 2 contain fluorine.

| Compound | ATP level |
| --- | --- |
| CCn1cc(C(=O)O)c(=O)c2cc(F)c(N3CCN(C)CC3)cc21 | inactive: -1.43 |
| C[C@@H]1CN(c2c(F)c(N)c3c(=O)c(C(=O)O)cn(C4CC4)c3c2F)C[C@H](C)N1 | inactive: -2.32 |

(next part)

| Compound | ATP level |
| --- | --- |
| CC1(C)[C@@H](O[C@H]2O[C@H](C(=O)O)[C@@H](O)[C@H](O)[C@H]2O[C@@H]2O[C@H](C(=O)O)[C@@H](O)[C@H](O)[C@H]2O)CC[C@]2(C)[C@H]3C(=O)C=C4[C@@H]5C[C@@](C)(C(=O)O)CC[C@]5(C)CC[C@@]4(C)[C@]3(C)CC[C@@H]12 | inactive: -6.21 |
| CCOC(=O)CCC(=O)O[C@H]1[C@H](O[C@@H]2[C@@H](C)[C@H](O[C@H]3C[C@@](C)(OC)[C@@H](O)[C@H](C)O3)[C@@H](C)C(=O)O[C@H](CC)[C@@](C)(O)[C@H](O)[C@@H](C)C(=O)[C@H](C)C[C@@]2(C)O)O[C@H](C)C[C@@H]1N(C)C | inactive: -0.57 |
| C[C@]12C=CC(=O)C=C1CC[C@@H]1[C@@H]2C(=O)C[C@@]2(C)[C@H]1CC[C@]2(O)C(=O)CO | inactive: -0.762 |
| CS(=O)(=O)Nc1ccc([N+](=O)[O-])cc1Oc1ccccc1 | inactive: 0.144 |
| CCn1cc(C(=O)O)c(=O)c2cc(F)c(N3CCNC(C)C3)c(F)c21 (configuration not stated) | inactive: 1.38 |
| OCc1ccccc1 | inactive: -0.208 |
| CNC(=C[N+](=O)[O-])NCCSCc1csc(CN(C)C)n1 | active: 3.95 |
| NS(=O)(=O)c1cc2c(cc1Cl)NCNS2(=O)=O | inactive: 0.673 |
| COc1cc(/C=C/C(=O)O)ccc1O | inactive: -0.48 |
| CC(=O)O[C@H]1CC[C@]2(C)[C@H]3CC=C4[C@@H]5CC(C)(C)CC[C@]5(C)CC[C@@]4(C)[C@]3(C)CC[C@H]2C1(C)C [beta-AMYRIN ACETATE] | inactive: -0.471 |
| CN(C)CCC=C1c2ccccc2C=Cc2ccccc21 | inactive: -22.9 |
| O=c1[nH]c(=O)n([C@H]2C[C@H](O)[C@@H](CO)O2)cc1F | inactive: -28.4 |
| Nc1ccc(C(=O)Oc2ccccc2)c(O)c1 | inactive: -0.682 |
| CNNCc1ccc(C(=O)NC(C)C)cc1 | inactive: 0.69 |
| C[n+]1cccc(C(=O)[O-])c1 | inactive: 0.528 |
| O=C(O)c1cc(O)c2c(c1)[C@H]([C@H]1c3cc(C(=O)O)cc(O)c3C(=O)c3c(O[C@@H]4O[C@H](CO)[C@@H](O)[C@H](O)[C@H]4O)cccc31)c1cccc(O[C@@H]3O[C@H](CO)[C@@H](O)[C@H](O)[C@H]3O)c1C2=O | inactive: 1.36 |
| CC(=O)Oc1cc(C(C)C)c(OCCN(C)C)cc1C | inactive: 0.918 |
| N[C@@H](COCc1ccccc1)C(=O)O | inactive: 0.999 |
| CC(c1cc2ccccc2s1)N(O)C(N)=O (configuration not stated) | inactive: 1.89 |
| C[C@@H]1C(=O)O[C@H]2C[C@@]34[C@H]5C[C@@H](C(C)(C)C)[C@]36[C@@H](OC(=O)[C@@H]6O)O[C@@]4(C(=O)O5)[C@]21O | inactive: 1.03 |
| CC1=CC(=O)CC(C)(C)C1(O)/C=C/C(C)=C\C(=O)O (mixture of isomers) [ABSCISIC ACID (cis,trans; +/-)] | inactive: -0.334 |
| NC(=O)c1ncn([C@@H]2O[C@H](CO)[C@@H](O)[C@H]2O)c1N | inactive: -0.159 |
| CCC(=O)O[C@H]1[C@H](O[C@@H]2[C@@H](C)[C@H](O[C@H]3C[C@@](C)(OC)[C@@H](O)[C@H](C)O3)[C@@H](C)C(=O)O[C@H](CC)[C@@](C)(O)[C@H](O)[C@@H](C)C(=O)[C@H](C)C[C@@]2(C)O)O[C@H](C)C[C@@H]1N(C)C | inactive: -0.402 |
